Source: article PMC3871805

Target: T1, 6His-WRKY40 (UniProt Q9SAH7)
T1 sequence (looked up, limits assumed): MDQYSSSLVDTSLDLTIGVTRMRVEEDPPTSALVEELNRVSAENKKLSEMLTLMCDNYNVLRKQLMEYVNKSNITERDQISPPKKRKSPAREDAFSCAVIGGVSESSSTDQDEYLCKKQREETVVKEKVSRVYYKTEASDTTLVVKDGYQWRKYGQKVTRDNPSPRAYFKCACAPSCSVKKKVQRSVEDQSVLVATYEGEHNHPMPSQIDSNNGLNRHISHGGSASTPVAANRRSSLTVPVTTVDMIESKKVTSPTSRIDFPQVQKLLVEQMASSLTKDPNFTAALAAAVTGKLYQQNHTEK
Experiment: EMSA
Conditions: 50 ng His-WRKY40, 26 ng DIG-labelled fragment; competition with 5- to 20-fold molar excess of unlabelled fragment; buffer as in Shang et al. 2010 (not given); recombinant protein; protein details: 6xHis; label: digoxigenin-dUTP

| Sequence | binding result |
| --- | --- |
| AAGTTTTAGTTATTGGGTTGTAGCAAAAATCATTCTTGTCACGAGGGTGTAAGTAAGTGTAACCGTTGAAGTATTCAGTGGCTCATAACTTGTGGTCACAAAACGCTTGGCTGCAATGAAAAAATCAAAACAAATGCTGGTGGACTAGAGATTGCCACGTAAGACTACTAAACGATAAAACAAAAATCTTAAAATCCAATGAATG (double strand) [pLHCB1-2 (p2)] | binds |
| ATTCATTGCTGTCATTTACATTTCAATAAGAAAATAAATTAATTTCCACGTGTCATTTTATTTTCCTCTCACAATTTAGATTTAGATAAGTAAAGTATTAGAAAAATGTAAATACTGAGTTGGCAGAATAAGACAGTGGTGAGTGTGGGTGATGTGGATATGGTGAAGTAGTTTCTGACTCCTAATTGGTCAGAAATCTATC (double strand) [pLHCB6] | binds |
| CATAACTTGTGGTCACAAAACGCTTGGCTGCAATGAAAAAATCAAAACAAATGCTGGTGGACTAGAGATTGCCACGTAAGACTACTAAACGATAAAACAAAAATCTTAAAATCCAATGAATGAACAGATAAAGATTACTTCAGATATAACAAACGTTACAATATCCCTATATAATCCAACACTATCGAACCAGTTTTAATCACTCTCACTCACAAGTTAGTCATAA (double strand) [pLHCB1-1 (p1)] | binds |
| CTATTACAACCGTTTAATTGAACCATTGCAATATTTAGTTTATTTGACGAACCATTAAAATTATTGGTTTATTTTATGAACTCTTGTAATATTTTATATATAAATAGTAGCGATCTGACTAAATGACTTATACGTTTGGGTTTCTCAATTTTGTAACTGTGTTTGCATTGTAATGGCTCATGACCTAAGC (double strand) [pLHCB2-2 (p2)] | binds |
| GATAAAGAGTAAAACGTCAAAGTTTTAAGGTGATATCACATAATTCATGAGATTATTTTGGTTATTGGATAAAGTGACGATGAAATCGATTCATAATTGAAATTAAACTGGTAGTGATGATGAACTAATTACCATTGAAAATATTGATATTTATGTGTGGGTAAATGCTTTTTATAATGTTAC (double strand) [pLHCB1-3 (p3)] | binds |
| TCTCTACCATTATGTGACTCTTGTAAGAGCCATAGCCAAGGAAAATTACTTAAGTTAGGTAATGTTCTGTGAAATATATTTTTCCTCCTCTGTAAATAAAGTGTGTTTTTCTATTTACTTGCAGTTTGACTTCTTGATCTGGTAAGTGTTGGCTTTTAATATATGATTTAGTGTGACATAGCGAATCATGC (double strand) [pLHCB2-1 (p1)] | binds |

The exact form of at least one protein or probe is not confirmed. At least one verdict was read from the data and is not stated in words by the source. Protein sequences can lack the tags named with them.
